PubChem BioAssay AID1259254 | NCATS | 2017
Purpose: 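Gene knock-downs that lead to re-replication, shown by excess G2 DNA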 (primary screen). Cells: human HCT116 colorectal cancer cells. Reagent: single siRNA against human genes. Duration: 3 days. Measured: 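Imaged Hoechst DNA stain sorts each cell into a cycle phase by DNA amount; per plate, G2 fraction set to 0% for non-targeting and 100% for GMNN siRNA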. Direction: G2 robust z-score and G2 cells, % of GMNN control: higher = more G2 cells, more excess DNA replication; raw share of cells in G2: higher = larger share of cells with G2 DNA content. Active means: 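Active siRNAs have a G2 robust z of 5 or more median absolute deviations over the median, which in these data means about 38% or higher of GMNN control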.
Shown is one part, drawn at random, of about 59,000 reagents tested. About 1,550 of all reagents (2.6%) were called active. 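G2 share is only a proxy for re-replication; each gene was hit by three separate siRNAs, and active genes were retested.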 Raw values are not corrected between plates. A number with no mark means an inactive call. The numbers tell different reagents against one gene apart. Not given: the amount of reagent.

no.	gene	siRNA no.	G2 robust z-score	G2 cells, % of GMNN control	raw share of cells in G2 (%)
1	ERI3 (GeneID 79033)	1	4.17	32.3	18.7
2	ERI3 (GeneID 79033)	2	-0.463	-0.287	4.48
3	ERI3 (GeneID 79033)	3	5.1 (active)	38.8	13
4	SH3BP5 (GeneID 9467)	1	-1.1	-4.78	4.1
5	SH3BP5 (GeneID 9467)	2	0.859	9.01	8.47
6	SH3BP5 (GeneID 9467)	3	-0.203	1.54	4.18
7	RBFOX1 (GeneID 54715)	1	2.45	20.2	15.1
8	RBFOX1 (GeneID 54715)	2	3.98	31	15.7
9	RBFOX1 (GeneID 54715)	3	1.88	16.2	10
10	EEF1DP6 (GeneID 644357)	1	0.352	5.45	5.23
11	EEF1DP6 (GeneID 644357)	2	-0.157	1.86	3.69
12	EEF1DP6 (GeneID 644357)	3	-0.524	-0.717	3.37
13	SLC6A12 (GeneID 6539)	1	-0.259	1.14	6.07
14	SLC6A12 (GeneID 6539)	2	-0.107	2.21	5.31
15	SLC6A12 (GeneID 6539)	3	0.906	9.34	7.05
16	KCNT2 (GeneID 343450)	1	5.48 (active)	41.6	20.4
17	KCNT2 (GeneID 343450)	2	-0.92	-3.51	3.6
18	KCNT2 (GeneID 343450)	3	2.95	23.7	13.6
19	PEX10 (GeneID 5192)	1	0.881	9.17	8.87
20	PEX10 (GeneID 5192)	2	0.948	9.64	8.03
21	PEX10 (GeneID 5192)	3	1.6	14.2	8.49
22	ANGPTL5 (GeneID 253935)	1	-0.352	0.492	4.88
23	ANGPTL5 (GeneID 253935)	2	-1.18	-5.37	2.45
24	ANGPTL5 (GeneID 253935)	3	0.302	5.09	8.39
25	TEDC1 (GeneID 283643)	1	-1.01	-4.13	2.01
26	TEDC1 (GeneID 283643)	2	1.94	16.6	9.69
27	TEDC1 (GeneID 283643)	3	0.464	6.23	5.45
28	TFF2 (GeneID 7032)	1	-0.734	-2.19	4.16
29	TFF2 (GeneID 7032)	2	-0.183	1.68	4.56
30	TFF2 (GeneID 7032)	3	-0.85	-3.01	2.28
31	NUDT8 (GeneID 254552)	1	-0.96	-3.79	1.83
32	NUDT8 (GeneID 254552)	2	0.794	8.55	5.92
33	NUDT8 (GeneID 254552)	3	-0.618	-1.38	3.08
34	EIF2S2P7 (GeneID 647016)	1	2.3	19.2	9.13
35	EIF2S2P7 (GeneID 647016)	2	-0.622	-1.41	3.25
36	EIF2S2P7 (GeneID 647016)	3	-0.639	-1.53	2.66
37	XDH (GeneID 7498)	1	2.47	20.4	14.2
38	XDH (GeneID 7498)	2	7.08 (active)	52.8	21.9
39	XDH (GeneID 7498)	3	2.48	20.4	11.9
40	BRME1 (GeneID 79173)	1	-0.763	-2.4	3.53
41	BRME1 (GeneID 79173)	2	-0.669	-1.74	3.83
42	BRME1 (GeneID 79173)	3	-0.598	-1.24	2.37
43	STEEP1P1 (GeneID 728024)	1	-0.368	0.381	3.69
44	STEEP1P1 (GeneID 728024)	2	-1.01	-4.11	1.42
45	STEEP1P1 (GeneID 728024)	3	-0.618	-1.38	3.08
46	R3HDM4 (GeneID 91300)	1	0.459	6.19	6.71
47	R3HDM4 (GeneID 91300)	2	1.06	10.4	6.27
48	R3HDM4 (GeneID 91300)	3	-0.188	1.65	3.45
49	NPR1 (GeneID 4881)	1	-0.307	0.81	3.48
50	NPR1 (GeneID 4881)	2	1.74	15.2	10.9
51	NPR1 (GeneID 4881)	3	0.906	9.34	8.74
52	ELAPOR1 (GeneID 57535)	1	-1.18	-5.36	2.23
53	ELAPOR1 (GeneID 57535)	2	-0.785	-2.56	3.24
54	ELAPOR1 (GeneID 57535)	3	-0.547	-0.881	2.75
55	FCN1 (GeneID 2219)	1	-0.53	-0.759	3.16
56	FCN1 (GeneID 2219)	2	-0.463	-0.291	4.71
57	FCN1 (GeneID 2219)	3	-0.783	-2.54	2.19

10 entries already listed, ordered by “G2 cells, % of GMNN control”, ascending.
gene	siRNA no.	G2 robust z-score	G2 cells, % of GMNN control	raw share of cells in G2 (%)
SH3BP5 (GeneID 9467)	1	-1.1	-4.78	4.1
ERI3 (GeneID 79033)	2	-0.463	-0.287	4.48
SH3BP5 (GeneID 9467)	3	-0.203	1.54	4.18
EEF1DP6 (GeneID 644357)	1	0.352	5.45	5.23
SH3BP5 (GeneID 9467)	2	0.859	9.01	8.47
RBFOX1 (GeneID 54715)	3	1.88	16.2	10
RBFOX1 (GeneID 54715)	1	2.45	20.2	15.1
RBFOX1 (GeneID 54715)	2	3.98	31	15.7
ERI3 (GeneID 79033)	1	4.17	32.3	18.7
ERI3 (GeneID 79033)	3	5.1 (active)	38.8	13

Further reagents follow:
no.	gene	siRNA no.	G2 robust z-score	G2 cells, % of GMNN control	raw share of cells in G2 (%)
58	OTUB2 (GeneID 78990)	1	-0.352	0.49	5.85
59	OTUB2 (GeneID 78990)	2	0.345	5.4	6.26
60	OTUB2 (GeneID 78990)	3	-0.222	1.4	4.73
61	GNRHR (GeneID 2798)	1	0.959	9.72	9.32
62	GNRHR (GeneID 2798)	2	0.771	8.39	7.45
63	GNRHR (GeneID 2798)	3	0.479	6.34	5.21
64	CDK14 (GeneID 5218)	1	7.35 (active)	54.7	23.7
65	CDK14 (GeneID 5218)	2	1.29	12.1	9.48
66	CDK14 (GeneID 5218)	3	-0.294	0.9	4.34
67	IL4 (GeneID 3565)	1	2.27	18.9	11.1
68	IL4 (GeneID 3565)	2	-0.536	-0.802	4.75
69	IL4 (GeneID 3565)	3	1.58	14.1	11
70	PNMA3 (GeneID 29944)	1	0.264	4.82	5.7
71	PNMA3 (GeneID 29944)	2	1.3	12.1	9.13
72	PNMA3 (GeneID 29944)	3	-0.981	-3.93	2.01
73	WIZ (GeneID 58525)	1	-1.23	-5.67	3.3
74	WIZ (GeneID 58525)	2	-0.587	-1.16	3.94
75	WIZ (GeneID 58525)	3	-0.149	1.92	4.92
76	ATF1 (GeneID 466)	1	0.0111	3.05	5.76
77	ATF1 (GeneID 466)	2	-1.44	-7.18	2.52
78	ATF1 (GeneID 466)	3	0.2	4.37	5.62
79	PAAF1 (GeneID 80227)	1	0.0113	3.05	5.91
80	PAAF1 (GeneID 80227)	2	0.87	9.09	7.48
81	PAAF1 (GeneID 80227)	3	0.162	4.11	7.14
82	ERC2 (GeneID 26059)	1	0.982	9.87	7.47
83	ERC2 (GeneID 26059)	2	2.4	19.9	10.5
84	ERC2 (GeneID 26059)	3	1.8	15.6	13.3
85	TRIM44 (GeneID 54765)	1	-0.598	-1.24	3.16
86	TRIM44 (GeneID 54765)	2	-0.232	1.33	4.83
87	TRIM44 (GeneID 54765)	3	5.72 (active)	43.2	17.5
